Measured values published in PMC9636508.
These are yes or no findings as the source states them, for the method shown. In cells and extracts the contact can be indirect. These calls come from enrichment with a bait or labelling near it, and not all partners need be listed.

Protein sequences, listed by entry. Tags and fused reporters are not part of them.
UniProt Q9UNF0: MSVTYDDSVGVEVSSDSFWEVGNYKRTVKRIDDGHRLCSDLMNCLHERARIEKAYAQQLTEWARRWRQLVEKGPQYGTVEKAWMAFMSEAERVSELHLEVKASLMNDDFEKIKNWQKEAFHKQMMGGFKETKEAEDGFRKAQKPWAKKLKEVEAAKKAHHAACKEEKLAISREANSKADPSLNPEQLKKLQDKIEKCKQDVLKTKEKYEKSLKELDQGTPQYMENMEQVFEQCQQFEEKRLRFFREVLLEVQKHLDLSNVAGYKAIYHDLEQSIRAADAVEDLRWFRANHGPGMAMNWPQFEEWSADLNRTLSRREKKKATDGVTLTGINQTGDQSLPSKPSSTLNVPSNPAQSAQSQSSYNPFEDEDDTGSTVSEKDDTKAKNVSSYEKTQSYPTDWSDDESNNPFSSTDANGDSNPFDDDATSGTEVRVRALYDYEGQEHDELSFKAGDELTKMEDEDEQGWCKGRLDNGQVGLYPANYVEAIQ

Molecular target: PACSIN2, bait of the tandem affinity purification (UniProt Q9UNF0)
Experiment: affinity purification with mass spectrometry; tandem affinity purification with PACSIN2 as bait; cells not told

| Binder | binding |
| --- | --- |
| SH3BP1, found with the PACSIN2 bait (protein, UniProt Q9Y3L3 1-701) MMKRQLHRMRQLAQTGSLGRTPETAEFLGEDLLQVEQRLEPAKRAAHNIHKRLQACLQGQSGADMDKRVKKLPLMALSTTMAESFKELDPDSSMGKALEMSCAIQNQLARILAEFEMTLERDVLQPLSRLSEEELPAILKHKKSLQKLVSDWNTLKSRLSQATKNSGSSQGLGGSPGSHSHTTMANKVETLKEEEEELKRKVEQCRDEYLADLYHFVTKEDSYANYFIRLLEIQADYHRRSLSSLDTALAELRENHGQADHSPSMTATHFPRVYGVSLATHLQELGREIALPIEACVMMLLSEGMKEEGLFRLAAGASVLKRLKQTMASDPHSLEEFCSDPHAVAGALKSYLRELPEPLMTFDLYDDWMRAASLKEPGARLQALQEVCSRLPPENLSNLRYLMKFLARLAEEQEVNKMTPSNIAIVLGPNLLWPPEKEGDQAQLDAASVSSIQVVGVVEALIQSADTLFPGDINFNVSGLFSAVTLQDTVSDRLASEELPSTAVPTPATTPAPAPAPAPAPAPALASAATKERTESEVPPRPASPKVTRSPPETAAPVEDMARRTKRPAPARPTMPPPQVSGSRSSPPAPPLPPGSGSPGTPQALPRRLVGSSLRAPTVPPPLPPTPPQPARRQSRRSPASPSPASPGPASPSPVSLSNPAQVDLGAATAEGGAPEAISGVPTPPAIPPQPRPRSLASETN | binds |
| ARHGAP17 (protein, UniProt Q68EM7 1-881) MKKQFNRMKQLANQTVGRAEKTEVLSEDLLQIERRLDTVRSICHHSHKRLVACFQGQHGTDAERRHKKLPLTALAQNMQEASTQLEDSLLGKMLETCGDAENQLALELSQHEVFVEKEIVDPLYGIAEVEIPNIQKQRKQLARLVLDWDSVRARWNQAHKSSGTNFQGLPSKIDTLKEEMDEAGNKVEQCKDQLAADMYNFMAKEGEYGKFFVTLLEAQADYHRKALAVLEKTLPEMRAHQDKWAEKPAFGTPLEEHLKRSGREIALPIEACVMLLLETGMKEEGLFRIGAGASKLKKLKAALDCSTSHLDEFYSDPHAVAGALKSYLRELPEPLMTFNLYEEWTQVASVQDQDKKLQDLWRTCQKLPPQNFVNFRYLIKFLAKLAQTSDVNKMTPSNIAIVLGPNLLWARNEGTLAEMAAATSVHVVAVIEPIIQHADWFFPEEVEFNVSEAFVPLTTPSSNHSFHTGNDSDSGTLERKRPASMAVMEGDLVKKESFGVKLMDFQAHRRGGTLNRKHISPAFQPPLPPTDGSTVVPAGPEPPPQSSRAESSSGGGTVPSSAGILEQGPSPGDGSPPKPKDPVSAAVPAPGRNNSQIASGQNQPQAAAGSHQLSMGQPHNAAGPSPHTLRRAVKKPAPAPPKPGNPPPGHPGGQSSSGTSQHPPSLSPKPPTRSPSPPTQHTGQPPGQPSAPSQLSAPRRYSSSLSPIQAPNHPPPQPPTQATPLMHTKPNSQGPPNPMALPSEHGLEQPSHTPPQTPTPPSTPPLGKQNPSLPAPQTLAGGNPETAQPHAGTLPRPRPVPKPRNRPSVPPPPQPPGVHSAGDSSLTNTAPTASKIVTDSNSRVSEPHRSIFPEMHSDSASKDVPGRILLDIDNDTESTAL | binds |
| TCOF1 (protein, UniProt Q13428 1-1488) MAEARKRRELLPLIYHHLLRAGYVRAAREVKEQSGQKCFLAQPVTLLDIYTHWQQTSELGRKRKAEEDAALQAKKTRVSDPISTSESSEEEEEAEAETAKATPRLASTNSSVLGADLPSSMKEKAKAETEKAGKTGNSMPHPATGKTVANLLSGKSPRKSAEPSANTTLVSETEEEGSVPAFGAAAKPGMVSAGQADSSSEDTSSSSDETDVEGKPSVKPAQVKASSVSTKESPARKAAPAPGKVGDVTPQVKGGALPPAKRAKKPEEESESSEEGSESEEEAPAGTRSQVKASEKILQVRAASAPAKGTPGKGATPAPPGKAGAVASQTKAGKPEEDSESSSEESSDSEEETPAAKALLQAKASGKTSQVGAASAPAKESPRKGAAPAPPGKTGPAVAKAQAGKREEDSQSSSEESDSEEEAPAQAKPSGKAPQVRAASAPAKESPRKGAAPAPPRKTGPAAAQVQVGKQEEDSRSSSEESDSDREALAAMNAAQVKPLGKSPQVKPASTMGMGPLGKGAGPVPPGKVGPATPSAQVGKWEEDSESSSEESSDSSDGEVPTAVAPAQEKSLGNILQAKPTSSPAKGPPQKAGPVAVQVKAEKPMDNSESSEESSDSADSEEAPAAMTAAQAKPALKIPQTKACPKKTNTTASAKVAPVRVGTQAPRKAGTATSPAGSSPAVAGGTQRPAEDSSSSEESDSEEEKTGLAVTVGQAKSVGKGLQVKAASVPVKGSLGQGTAPVLPGKTGPTVTQVKAEKQEDSESSEEESDSEEAAASPAQVKTSVKKTQAKANPAAARAPSAKGTISAPGKVVTAAAQAKQRSPSKVKPPVRNPQNSTVLARGPASVPSVGKAVATAAQAQTGPEEDSGSSEEESDSEEEAETLAQVKPSGKTHQIRAALAPAKESPRKGAAPTPPGKTGPSAAQAGKQDDSGSSSEESDSDGEAPAAVTSAQVIKPPLIFVDPNRSPAGPAATPAQAQAASTPRKARASESTARSSSSESEDEDVIPATQCLTPGIRTNVVTMPTAHPRIAPKASMAGASSSKESSRISDGKKQEGPATQVSKKNPASLPLTQAALKVLAQKASEAQPPVARTQPSSGVDSAVGTLPATSPQSTSVQAKGTNKLRKPKLPEVQQATKAPESSDDSEDSSDSSSGSEEDGEGPQGAKSAHTLGPTPSRTETLVEETAAESSEDDVVAPSQSLLSGYMTPGLTPANSQASKATPKLDSSPSVSSTLAAKDDPDGKQEAKPQQAAGMLSPKTGGKEAASGTTPQKSRKPKKGAGNPQASTLALQSNITQCLLGQPWPLNEAQVQASVVKVLTELLEQERKKVVDTTKESSRKGWESRKRKLSGDQPAARTPRSKKKKKLGAGEGGEASVSPEKTSTTSKGKAKRDKASGDVKEKKGKGSLGSQGAKDEPEEELQKGMGTVEGGDQSNPKSKKEKKKSDKRKKDKEKKEKKKKAKKASTKDSESPSQKKKKKKKKTAEQTV | binds |
| WIPF2 (protein, UniProt Q8TF74 1-440) MPIPPPPPPPPGPPPPPTFHQANTEQPKLSRDEQRGRGALLQDICKGTKLKKVTNINDRSAPILEKPKGSSGGYGSGGAALQPKGGLFQGGVLKLRPVGAKDGSENLAGKPALQIPSSRAAAPRPPVSAASGRPQDDTDSSRASLPELPRMQRPSLPDLSRPNTTSSTGMKHSSSAPPPPPPGRRANAPPTPLPMHSSKAPAYNREKPLPPTPGQRLHPGREGPPAPPPVKPPPSPVNIRTGPSGQSLAPPPPPYRQPPGVPNGPSSPTNESAPELPQRHNSLHRKTPGPVRGLAPPPPTSASPSLLSNRPPPPARDPPSRGAAPPPPPPVIRNGARDAPPPPPPYRMHGSEPPSRGKPPPPPSRTPAGPPPPPPPPLRNGHRDSITTVRSFLDDFESKYSFHPVEDFPAPEEYKHFQRIYPSKTNRAARGAPPLPPILR | binds |
